Experimental data reported in US20260199218A1, “USE OF CELL MEMBRANE-BOUND SIGNALING FACTORS” (AIVITA Biomedical, Inc., priority 2017, published 2026).

Tested on: hESC
Experiment: Capture of Wnt and SHh from embryonic stem cell cultures by cyclodextrin solution
Format: cell-based, human
Settings: 10 mM cyclodextrin

Row | Compound | Capture effect compared to that observed with MBCD
1 | OC[C@H]1O[C@@H]2O[C@H]3[C@H](O)[C@@H](O)[C@@H](O[C@H]4[C@H](O)[C@@H](O)[C@@H](O[C@H]5[C@H](O)[C@@H](O)[C@@H](O[C@H]6[C@H](O)[C@@H](O)[C@@H](O[C@H]7[C@H](O)[C@@H](O)[C@@H](O[C@H]1[C@H](O)[C@H]2O)O[C@@H]7CO)O[C@@H]6CO)O[C@@H]5CO)O[C@@H]4CO)O[C@@H]3CO [α-cyclodextrin] | reduced but proportional effect
2 | OC[C@H]1O[C@@H]2O[C@H]3[C@H](O)[C@@H](O)[C@@H](O[C@H]4[C@H](O)[C@@H](O)[C@@H](O[C@H]5[C@H](O)[C@@H](O)[C@@H](O[C@H]6[C@H](O)[C@@H](O)[C@@H](O[C@H]7[C@H](O)[C@@H](O)[C@@H](O[C@H]8[C@H](O)[C@@H](O)[C@@H](O[C@H]1[C@H](O)[C@H]2O)O[C@@H]8CO)O[C@@H]7CO)O[C@@H]6CO)O[C@@H]5CO)O[C@@H]4CO)O[C@@H]3CO [β-cyclodextrin] | reduced but proportional effect
